No constants are given. Whether binding was seen depends on the method and setting. For part of these data: Binding seen in cells or lysates may run through a third protein. Some results given as binding are weak or reduced against the parent protein; the word gives no strength. Sequences can lack the tags named with a protein.
Key:
[1] = molecular target: T1, L242R-6xHis (zebrafish Prkra L242R mutant) (zebrafish) (UniProt B0V3F8); assay: co-IP
T1 sequence: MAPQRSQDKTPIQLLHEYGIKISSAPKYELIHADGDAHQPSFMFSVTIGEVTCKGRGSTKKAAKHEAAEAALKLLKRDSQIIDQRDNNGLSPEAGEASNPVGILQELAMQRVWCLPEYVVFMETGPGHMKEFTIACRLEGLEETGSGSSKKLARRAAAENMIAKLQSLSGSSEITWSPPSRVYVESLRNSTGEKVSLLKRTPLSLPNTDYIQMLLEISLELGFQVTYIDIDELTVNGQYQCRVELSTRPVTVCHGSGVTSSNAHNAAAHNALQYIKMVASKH

Sequences of proteins named here, by UniProt entry; tags and fusion partners are left off. A change or cut given only in a name is not applied to a line headed by its entry. A line that says so, or that is headed by a name, gives the form on record, which may keep a tag or linker.
eIF2α (subunit of translation initiation factor eIF2) (Q7ZWD3, form named): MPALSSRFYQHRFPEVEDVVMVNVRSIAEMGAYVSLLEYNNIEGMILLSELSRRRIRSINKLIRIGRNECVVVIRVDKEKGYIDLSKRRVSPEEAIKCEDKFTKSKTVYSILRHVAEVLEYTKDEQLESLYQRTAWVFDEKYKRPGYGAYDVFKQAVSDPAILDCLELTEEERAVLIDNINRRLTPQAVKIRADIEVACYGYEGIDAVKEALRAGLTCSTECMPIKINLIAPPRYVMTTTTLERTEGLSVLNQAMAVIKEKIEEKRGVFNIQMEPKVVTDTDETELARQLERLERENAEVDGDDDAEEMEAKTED

[2] = molecular target: Prkra overexpressed in zebrafish embryos as two differently tagged copies (6xMyc-Prkra and 6xHis-Prkra) (zebrafish) (UniProt B0V3F8); assay: co-IP
[3] = molecular target: T1, L242R-6xHis (zebrafish Prkra L242R mutant) (zebrafish); assay: native gel or EMSA

With “eIF2α (subunit of translation initiation factor eIF2) (from UniProt Q7ZWD3 1-315)” the binding [1] was “no binding”.

B1: Prkra-6xHis (recombinant wild-type zebrafish Prkra) (natural protein, UniProt B0V3F8 1-282, looked up)
chain: MAPQRSQDKTPIQLLHEYGIKISSAPKYELIHADGDAHQPSFMFSVTIGEVTCKGRGSTKKAAKHEAAEAALKLLKRDSQIIDQRDNNGLSPEAGEASNPVGILQELAMQRVWCLPEYVVFMETGPGHMKEFTIACRLEGLEETGSGSSKKLARRAAAENMIAKLQSLSGSSEITWSPPSRVYVESLRNSTGEKVSLLKRTPLSLPNTDYIQMLLEISLELGFQVTYIDIDELTVNGQYQCLVELSTRPVTVCHGSGVTSSNAHNAAAHNALQYIKMVASKH
With B1 the binding [2] was “binds”.

B2: L242R-6xHis (zebrafish Prkra L242R mutant) (protein, UniProt B0V3F8 1-282)
chain: MAPQRSQDKTPIQLLHEYGIKISSAPKYELIHADGDAHQPSFMFSVTIGEVTCKGRGSTKKAAKHEAAEAALKLLKRDSQIIDQRDNNGLSPEAGEASNPVGILQELAMQRVWCLPEYVVFMETGPGHMKEFTIACRLEGLEETGSGSSKKLARRAAAENMIAKLQSLSGSSEITWSPPSRVYVESLRNSTGEKVSLLKRTPLSLPNTDYIQMLLEISLELGFQVTYIDIDELTVNGQYQCRVELSTRPVTVCHGSGVTSSNAHNAAAHNALQYIKMVASKH
With B2 the binding [3] was “no binding”.
